Drawing on article PMC2777385, this text covers binding for 1 molecule.

By UniProt entry, the sequences of proteins in these tests, tags left out. Residues count along the entry.
UniProt P24369, residues 34-216: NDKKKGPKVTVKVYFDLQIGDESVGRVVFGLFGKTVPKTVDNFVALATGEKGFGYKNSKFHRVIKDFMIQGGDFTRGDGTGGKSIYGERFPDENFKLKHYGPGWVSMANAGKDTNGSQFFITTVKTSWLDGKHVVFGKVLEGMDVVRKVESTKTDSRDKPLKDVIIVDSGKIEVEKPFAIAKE

The target in test [1] is GST-cyclophilin B (UniProt P24369). In words: pull-down; as a3, GST-CypB with fibroblast lysates on glutathione-agarose, in the presence of cyclosporine A; western blot for P3H1; only the target purified. For orientation: In western blotting, separated proteins are transferred to a membrane and probed.
For test [2] the target is unchanged. In words: pull-down; lysates of wild-type (and CypB-knockout) mouse fibroblasts mixed with recombinant GST-cyclophilin B or GST; bound proteins isolated on GSH-agarose, washed in lysis buffer (1% NP-40, 20 mM HEPES pH 7.4, 5 mM NaCl), western blot; only the target purified.

These are yes or no findings as the source states them, for the method shown. In cells and extracts the contact can be indirect. Some entries that bind do so weakly or less than the wild type.

B1: Prolyl-3-hydroxylase-1 (P3H1), mouse fibroblasts (enzyme, UniProt Q3V1T4 26-739)
chain: ESEPGWDVAAPDLLYAEGTAAYSRGDWPGVVLNMERALRSRAALRALRLRCRTRCATELPWAPDLDLGPDPSLSQDPGAAALHDLRFFGAVLRRAACLRRCLGPPSAHLLSEELDLEFNKRSPYNYLQVAYFKINKLEKAVAAAHTFFVGNPEHMEMRQNLDYYQTMSGVKEADFRDLEAKPHMHEFRLGVRLYSEEKPQEAVPHLEAALQEYFVADEECRALCEGPYDYDGYNYLDYSADLFQAITDHYVQVLNCKQNCVTELASHPSREKPFEDFLPSHYNYLQFAYYNIGNYTQAIECAKTYLLFFPNDEVMHQNLAYYTAMLGEEEASSISPRENAEEYRRRSLLEKELLFFAYDIFGIPFVDPDSWTPEEVIPKRLQEKQKSERETAVRISQEIGNLMKEIETLVEEKTKESLDVSRLTREGGPLLYEGISLTMNSKVLNGSQRVVMDGVISDDECQELQRLTNAAATSGDGYRGQTSPHTPNEKFYGVTVLKALKLGQEGKVPLQSARMYYNVTEKVRRVMESYFRLDTPLYFSYSHLVCRTAIEESQAERKDSSHPVHVDNCILNAEALMCIKEPPAYTFRDYSAILYLNGDFDGGNFYFTELDAKTVTAEVQPQCGRAVGFSSGTENPHGVKAVTRGQRCAIALWFTLDPRHSERDRVQADDLVKMLFSPEEVDLPQEQPLPDQQGSPEPGEESLSDRGSLHKDEL
With B1, the binding entry with GST-cyclophilin B [1] and in the test with GST-cyclophilin B [2] was “binds” each time.
